Results published in publication PMC5584925.
These are yes or no findings as the source states them, for the method shown. Binding seen in cells or lysates may run through a third protein. These calls come from enrichment with a bait or labelling near it, and not all partners need be listed. Sequences can lack the tags named with a protein.

Molecular target: HA-tagged GST-POM121C (801–987) (human) (UniProt A8CG34)
Experiment: affinity purification with mass spectrometry

Binder | binding
Cysteinyl-tRNA synthetase, cytoplasmic (protein, UniProt P49589 1-748) MADSSGQQGKGRRVQPQWSPPAGTQPCRLHLYNSLTRNKEVFIPQDGKKVTWYCCGPTVYDASHMGHARSYISFDILRRVLKDYFKFDVFYCMNITDIDDKIIKRARQNHLFEQYREKRPEAAQLLEDVQAALKPFSVKLNETTDPDKKQMLERIQHAVQLATEPLEKAVQSRLTGEEVNSCVEVLLEEAKDLLSDWLDSTLGCDVTDNSIFSKLPKFWEGDFHRDMEALNVLPPDVLTRVSEYVPEIVNFVQKIVDNGYGYVSNGSVYFDTAKFASSEKHSYGKLVPEAVGDQKALQEGEGDLSISADRLSEKRSPNDFALWKASKPGEPSWPCPWGKGRPGWHIECSAMAGTLLGASMDIHGGGFDLRFPHHDNELAQSEAYFENDCWVRYFLHTGHLTIAGCKMSKSLKNFITIKDALKKHSARQLRLAFLMHSWKDTLDYSSNTMESALQYEKFLNEFFLNVKDILRAPVDITGQFEKWGEEEAELNKNFYDKKTAIHKALCDNVDTRTVMEEMRALVSQCNLYMAARKAVRKRPNQALLENIALYLTHMLKIFGAVEEDSSLGFPVGGPGTSLSLEATVMPYLQVLSEFREGVRKIAREQKVPEILQLSDALRDNILPELGVRFEDHEGLPTVVKLVDRNTLLKEREEKRRVEEEKRKKKEEAARRKQEQEAAKLAKMKIPPSEMFLSETDKYSKFDENGLPTHDMEGKELSKGQAKKLKKLFEAQEKLYKEYLQMAQNGSFQ | binds
Myosin-Id (protein, UniProt O94832 1-1006) MAEQESLEFGKADFVLMDTVSMPEFMANLRLRFEKGRIYTFIGEVVVSVNPYKLLNIYGRDTIEQYKGRELYERPPHLFAIADAAYKAMKRRSKDTCIVISGESGAGKTEASKYIMQYIAAITNPSQRAEVERVKNMLLKSNCVLEAFGNAKTNRNDNSSRFGKYMDINFDFKGDPIGGHINNYLLEKSRVIVQQPGERSFHSFYQLLQGGSEQMLRSLHLQKSLSSYNYIHVGAQLKSSINDAAEFRVVADAMKVIGFKPEEIQTVYKILAAILHLGNLKFVVDGDTPLIENGKVVSIIAELLSTKTDMVEKALLYRTVATGRDIIDKQHTEQEASYGRDAFAKAIYERLFCWIVTRINDIIEVKNYDTTIHGKNTVIGVLDIYGFEIFDNNSFEQFCINYCNEKLQQLFIQLVLKQEQEEYQREGIPWKHIDYFNNQIIVDLVEQQHKGIIAILDDACMNVGKVTDEMFLEALNSKLGKHAHFSSRKLCASDKILEFDRDFRIRHYAGDVVYSVIGFIDKNKDTLFQDFKRLMYNSSNPVLKNMWPEGKLSITEVTKRPLTAATLFKNSMIALVDNLASKEPYYVRCIKPNDKKSPQIFDDERCRHQVEYLGLLENVRVRRAGFAFRQTYEKFLHRYKMISEFTWPNHDLPSDKEAVKKLIERCGFQDDVAYGKTKIFIRTPRTLFTLEELRAQMLIRIVLFLQKVWRGTLARMRYKRTKAALTIIRYYRRYKVKSYIHEVARRFHGVKTMRDYGKHVKWPSPPKVLRRFEEALQTIFNRWRASQLIKSIPASDLPQVRAKVAAVEMLKGQRADLGLQRAWEGNYLASKPDTPQTSGTFVPVANELKRKDKYMNVLFSCHVRKVNRFSKVEDRAIFVTDRHLYKMDPTKQYKVMKTIPLYNLTGLSVSNGKDQLVVFHTKDNKDLIVCLFSKQPTHESRIGELVGVLVNHFKSEKRHLQVNVTNPVQCSLHGKKCTVSVETRLNQPQPDFTKNRSGFILSVPGN | binds
Nuclear pore complex protein Nup107 (protein, UniProt P57740 1-925) MDRSGFGEISSPVIREAEVTRTARKQSAQKRVLLQASQDENFGNTTPRNQVIPRTPSSFRQPFTPTSRSLLRQPDISCILGTGGKSPRLTQSSGFFGNLSMVTNLDDSNWAAAFSSQRSGLFTNTEPHSITEDVTISAVMLREDDPGEAASMSMFSDFLQSFLKHSSSTVFDLVEEYENICGSQVNILSKIVSRATPGLQKFSKTASMLWLLQQEMVTWRLLASLYRDRIQSALEEESVFAVTAVNASEKTVVEALFQRDSLVRQSQLVVDWLESIAKDEIGEFSDNIEFYAKSVYWENTLHTLKQRQLTSYVGSVRPLVTELDPDAPIRQKMPLDDLDREDEVRLLKYLFTLIRAGMTEEAQRLCKRCGQAWRAATLEGWKLYHDPNVNGGTELEPVEGNPYRRIWKISCWRMAEDELFNRYERAIYAALSGNLKQLLPVCDTWEDTVWAYFRVMVDSLVEQEIQTSVATLDETEELPREYLGANWTLEKVFEELQATDKKRVLEENQEHYHIVQKFLILGDIDGLMDEFSKWLSKSRNNLPGHLLRFMTHLILFFRTLGLQTKEEVSIEVLKTYIQLLIREKHTNLIAFYTCHLPQDLAVAQYALFLESVTEFEQRHHCLELAKEADLDVATITKTVVENIRKKDNGEFSHHDLAPALDTGTTEEDRLKIDVIDWLVFDPAQRAEALKQGNAIMRKFLASKKHEAAKEVFVKIPQDSIAEIYNQCEEQGMESPLPAEDDNAIREHLCIRAYLEAHETFNEWFKHMNSVPQKPALIPQPTFTEKVAHEHKEKKYEMDFGIWKGHLDALTADVKEKMYNVLLFVDGGWMVDVREDAKEDHERTHQMVLLRKLCLPMLCFLLHTILHSTGQYQECLQLADMVSSERHKLYLVFSKEELRKLLQKLRESSLMLLDQGLDPLGYEIQL | binds
Nuclear pore complex protein Nup93 (protein, UniProt Q8N1F7 1-819) MDTEGFGELLQQAEQLAAETEGISELPHVERNLQEIQQAGERLRSRTLTRTSQETADVKASVLLGSRGLDISHISQRLESLSAATTFEPLEPVKDTDIQGFLKNEKDNALLSAIEESRKRTFGMAEEYHRESMLVEWEQVKQRILHTLLASGEDALDFTQESEPSYISDVGPPGRSSLDNIEMAYARQIYIYNEKIVNGHLQPNLVDLCASVAELDDKSISDMWTMVKQMTDVLLTPATDALKNRSSVEVRMEFVRQALAYLEQSYKNYTLVTVFGNLHQAQLGGVPGTYQLVRSFLNIKLPAPLPGLQDGEVEGHPVWALIYYCMRCGDLLAASQVVNRAQHQLGEFKTWFQEYMNSKDRRLSPATENKLRLHYRRALRNNTDPYKRAVYCIIGRCDVTDNQSEVADKTEDYLWLKLNQVCFDDDGTSSPQDRLTLSQFQKQLLEDYGESHFTVNQQPFLYFQVLFLTAQFEAAVAFLFRMERLRCHAVHVALVLFELKLLLKSSGQSAQLLSHEPGDPPCLRRLNFVRLLMLYTRKFESTDPREALQYFYFLRDEKDSQGENMFLRCVSELVIESREFDMILGKLENDGSRKPGVIDKFTSDTKPIINKVASVAENKGLFEEAAKLYDLAKNADKVLELMNKLLSPVVPQISAPQSNKERLKNMALSIAERYRAQGISANKFVDSTFYLLLDLITFFDEYHSGHIDRAFDIIERLKLVPLNQESVEERVAAFRNFSDEIRHNLSEVLLATMNILFTQFKRLKGTSPSSSSRPQRVIEDRDSQLRSQARTLITFAGMIPYRTSGDTNARLVQMEVLMN | binds
